Reference: patent US7238473
Construct, isoform or probe ends are uncertain for at least one entry. At least one result comes from cells or an extract, where the contact may be indirect. Protein sequences can lack the tags named with them.

Columns and labels:
Assay in all cases: binding assay
[1] = target: T1, TTP (tristetraprolin) wild type (Homo sapiens) (UniProt P26651); conditions: UV cross-linking, room temperature, heparin and tRNA competitor; EMSA also positive (p199); protein in a lysate after overexpression; label: 32P-UTP
T1 sequence: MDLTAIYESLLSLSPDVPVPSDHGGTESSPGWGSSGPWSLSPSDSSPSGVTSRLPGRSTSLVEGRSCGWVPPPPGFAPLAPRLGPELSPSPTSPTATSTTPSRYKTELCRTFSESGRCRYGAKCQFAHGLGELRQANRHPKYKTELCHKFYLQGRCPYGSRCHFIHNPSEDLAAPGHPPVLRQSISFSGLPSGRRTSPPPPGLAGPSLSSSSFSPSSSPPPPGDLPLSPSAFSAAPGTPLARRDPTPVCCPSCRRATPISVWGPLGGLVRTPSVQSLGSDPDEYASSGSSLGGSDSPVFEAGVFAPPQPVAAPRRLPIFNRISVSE

[2] = tested on: T2, XC3H-4 full length (Xenopus laevis); conditions: UV cross-linking; protein in a lysate after overexpression; protein details: C-terminal HA (Xenopus oocyte extract); label: 32P-UTP
T2 sequence: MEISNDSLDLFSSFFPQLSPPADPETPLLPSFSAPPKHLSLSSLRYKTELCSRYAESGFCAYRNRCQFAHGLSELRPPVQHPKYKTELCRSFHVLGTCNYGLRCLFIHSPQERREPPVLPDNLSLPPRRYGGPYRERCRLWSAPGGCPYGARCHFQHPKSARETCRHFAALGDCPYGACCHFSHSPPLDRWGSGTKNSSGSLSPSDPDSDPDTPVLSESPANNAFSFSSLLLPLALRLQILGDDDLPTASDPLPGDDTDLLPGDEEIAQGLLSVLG

TTP mouse (Mus musculus) = target: T3, TTP mouse (Mus musculus) (UniProt P22893); conditions: UV cross-linking; protein in a lysate after overexpression; protein details: C-terminal HA (CMV.mTTP.tag); label: 32P-UTP
T3 sequence (looked up, limits assumed): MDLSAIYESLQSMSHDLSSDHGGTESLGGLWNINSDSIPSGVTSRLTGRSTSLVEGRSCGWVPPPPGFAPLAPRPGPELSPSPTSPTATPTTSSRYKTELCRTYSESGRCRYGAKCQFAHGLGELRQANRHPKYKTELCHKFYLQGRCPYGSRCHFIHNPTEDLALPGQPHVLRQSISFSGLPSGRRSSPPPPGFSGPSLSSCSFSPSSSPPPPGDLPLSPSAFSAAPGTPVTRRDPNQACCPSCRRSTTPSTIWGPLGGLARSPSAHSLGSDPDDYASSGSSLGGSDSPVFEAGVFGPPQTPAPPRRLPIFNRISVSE

[3] = target: T4, XC3H-3 (TIS11d/ERF2 homologue) (Xenopus laevis) (UniProt Q7ZXW9); conditions: UV cross-linking; EMSA also positive (p256); protein in a lysate after overexpression; protein details: C-terminal HA; label: 32P-UTP
T4 sequence (looked up, limits assumed): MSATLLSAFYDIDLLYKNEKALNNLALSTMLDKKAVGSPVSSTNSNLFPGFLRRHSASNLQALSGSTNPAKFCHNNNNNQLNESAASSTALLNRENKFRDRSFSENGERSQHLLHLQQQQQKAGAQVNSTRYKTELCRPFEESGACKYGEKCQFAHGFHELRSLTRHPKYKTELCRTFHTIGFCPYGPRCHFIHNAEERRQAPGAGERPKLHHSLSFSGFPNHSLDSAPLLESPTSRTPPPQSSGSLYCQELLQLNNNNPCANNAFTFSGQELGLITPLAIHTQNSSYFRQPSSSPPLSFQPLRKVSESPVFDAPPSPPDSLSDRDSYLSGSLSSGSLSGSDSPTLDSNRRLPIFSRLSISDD

[4] = target: T5, TTP(1-173) (Homo sapiens) (UniProt P26651); conditions: UV cross-linking; protein in a lysate after overexpression; protein details: C-terminal HA; label: 32P-UTP
T5 sequence: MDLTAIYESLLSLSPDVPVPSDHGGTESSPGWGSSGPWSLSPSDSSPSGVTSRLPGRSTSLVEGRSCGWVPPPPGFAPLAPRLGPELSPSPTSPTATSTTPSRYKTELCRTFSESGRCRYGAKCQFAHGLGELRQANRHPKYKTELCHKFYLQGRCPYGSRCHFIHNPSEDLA

Measured: binding result

CUCUAUUUAUAUUUGCACUUAUUAUUUAUUAUUUAUUUAUUAUUUAUUUAUUUGCUUAUGAAUGUAUUUA [TNFa ARE probe 1281-1350]
binds: all assays above
